Values of other authors in patent US6610270B1, “In vivo determination of metabolic function for use in therapy management” (Xanthus Life Sciences, Inc., priority 1998, dated 2003).
At least one compound was matched to its structure with a doubt left.

Settings: cited from earlier work

For O=C(O)[C@@H]1CS[13C](=O)N1 [OTC, L-2-oxo[^13C]thiazolidine-4-carboxylic acid], the toxicological properties is given as “demonstrably unremarkable”.
